Assay: Quantum yield of photolysis by comparison with MNI-glutamate, HPLC
Type: physicochemical
Source text: Inventors measured the quantum yield of photolysis of NDBF-EGTA by comparison with a known standard, 4-methoxy-7-nitroindolinyl(MNI)-glutamate (Matsuzaki, et al., 1999). A solution containing NDBF-EGTA and MNI-glutamate was photolyzed at 350 nm, in order to determine the relative % photolysis of the two caged compounds. The concentrations of the two compounds were set so that their chromophores would absorb the same amount of light (MNI/NDBF ratio 3.7:1), and so that the total optical density was 0.4. Under these conditions the same number of excited states are created simultaneously for both cages, making determination of the quantum for NBDF-EGTA more reliable. As a control, both cages were photolyzed separately to check that there was no interference from simultaneous photolysis. Inosine was also included in the photolysis reaction mixture, as a photochemically inert standard. MNI-glutamate has a quantum yield of photolysis of 0.085. […] Saturating [Ca] had no effect on this value.

NDBF-EGTA
photolysis speed relative to MNI-glutamate (one-photon, 350 nm, HPLC): 6-7 times | effect of saturating [Ca] on quantum yield of photolysis (saturating [Ca]): no effect

Source: patent US7897638B2, “Synthesis of nitrodibenzylfuran chromophore for photodeprotection of organic molecules” (Philadelphia Health & Education Corporation, priority 2005, dated 2011)
